# The inconclusive results got no clear call from the source; some entries with a clear call stand among them for comparison. For some assays here: Potencies beside an inconclusive call are fits to weak or partial responses and may not hold up. The source made the active and inactive calls. Unless noted, calls follow the shape of the dose curve; as a rule, active = well fitted curve in the direction sought with a large enough effect; inconclusive = small, poorly fitted or top-dose-only effect, or another doubt; inactive = no such curve, though single readings can be large; an effect the other way counts as inactive or inconclusive.
# The chains behind the UniProt entries cited, without tags or fusion partners. Where a name states a change or a piece, a line headed by the entry shows the natural chain unless it says otherwise.
# UniProt A8B2U2: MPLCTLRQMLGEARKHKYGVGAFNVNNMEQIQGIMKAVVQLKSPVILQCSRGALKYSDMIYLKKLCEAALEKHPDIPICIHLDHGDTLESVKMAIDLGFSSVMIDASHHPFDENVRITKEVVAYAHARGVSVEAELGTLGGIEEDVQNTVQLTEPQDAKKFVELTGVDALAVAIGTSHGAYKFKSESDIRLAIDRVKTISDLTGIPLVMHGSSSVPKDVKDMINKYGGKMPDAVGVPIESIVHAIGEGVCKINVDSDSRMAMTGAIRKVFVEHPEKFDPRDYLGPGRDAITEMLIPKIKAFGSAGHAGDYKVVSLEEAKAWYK
# UniProt P00883: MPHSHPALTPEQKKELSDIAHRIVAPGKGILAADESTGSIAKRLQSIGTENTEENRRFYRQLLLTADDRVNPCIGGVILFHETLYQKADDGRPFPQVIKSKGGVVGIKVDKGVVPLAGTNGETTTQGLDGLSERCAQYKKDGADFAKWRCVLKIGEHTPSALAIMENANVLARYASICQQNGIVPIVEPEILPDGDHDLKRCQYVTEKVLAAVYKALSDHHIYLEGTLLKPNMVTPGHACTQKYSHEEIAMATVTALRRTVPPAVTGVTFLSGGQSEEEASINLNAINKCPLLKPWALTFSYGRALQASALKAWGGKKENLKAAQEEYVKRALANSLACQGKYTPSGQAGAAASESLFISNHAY
# UniProt O94782: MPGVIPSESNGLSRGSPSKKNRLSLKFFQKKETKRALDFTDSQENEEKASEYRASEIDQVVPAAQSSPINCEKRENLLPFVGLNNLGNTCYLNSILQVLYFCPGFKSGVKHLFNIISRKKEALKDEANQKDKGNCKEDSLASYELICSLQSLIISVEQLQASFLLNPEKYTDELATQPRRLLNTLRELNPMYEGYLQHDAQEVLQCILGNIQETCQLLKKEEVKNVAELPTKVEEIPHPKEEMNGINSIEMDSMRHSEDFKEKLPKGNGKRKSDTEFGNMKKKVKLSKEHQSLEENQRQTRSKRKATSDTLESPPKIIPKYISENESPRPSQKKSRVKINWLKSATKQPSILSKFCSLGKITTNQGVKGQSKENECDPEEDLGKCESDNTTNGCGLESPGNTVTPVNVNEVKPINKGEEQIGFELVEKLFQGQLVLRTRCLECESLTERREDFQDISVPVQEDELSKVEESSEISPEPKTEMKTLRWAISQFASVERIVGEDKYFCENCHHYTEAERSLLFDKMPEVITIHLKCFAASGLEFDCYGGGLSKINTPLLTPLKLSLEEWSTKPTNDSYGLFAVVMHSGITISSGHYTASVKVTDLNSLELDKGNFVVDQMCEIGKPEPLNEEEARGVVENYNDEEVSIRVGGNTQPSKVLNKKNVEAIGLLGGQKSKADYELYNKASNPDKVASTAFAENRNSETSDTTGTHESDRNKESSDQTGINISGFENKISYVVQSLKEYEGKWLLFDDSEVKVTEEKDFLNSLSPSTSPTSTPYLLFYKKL
# UniProt Q9NUW8, whole entry, looked up: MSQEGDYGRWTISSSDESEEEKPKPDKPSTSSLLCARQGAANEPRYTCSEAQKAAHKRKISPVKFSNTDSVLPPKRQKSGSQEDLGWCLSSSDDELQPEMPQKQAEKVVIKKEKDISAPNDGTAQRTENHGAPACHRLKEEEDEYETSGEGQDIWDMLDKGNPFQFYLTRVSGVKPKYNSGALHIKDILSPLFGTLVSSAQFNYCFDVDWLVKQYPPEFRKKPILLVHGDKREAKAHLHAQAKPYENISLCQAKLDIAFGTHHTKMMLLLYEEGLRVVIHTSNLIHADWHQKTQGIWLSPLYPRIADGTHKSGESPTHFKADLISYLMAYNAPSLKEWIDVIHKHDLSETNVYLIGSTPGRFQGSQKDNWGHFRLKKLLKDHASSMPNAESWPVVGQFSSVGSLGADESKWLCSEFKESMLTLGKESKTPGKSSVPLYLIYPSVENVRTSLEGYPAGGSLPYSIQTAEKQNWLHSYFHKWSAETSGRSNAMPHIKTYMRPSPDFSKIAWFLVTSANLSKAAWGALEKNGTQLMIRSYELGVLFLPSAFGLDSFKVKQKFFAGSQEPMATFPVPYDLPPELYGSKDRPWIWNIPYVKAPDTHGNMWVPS
# Tests used:
# [1] = qHTS Assay for Inhibitors of Fructose-1,6-bisphosphate Aldolase from Giardia Lamblia: Giardia lamblia growth inhibition (AID 2785); conditions: Giardia lamblia trophozoite growth inhibition; activity change, negative = inhibition: at 57.5 µM (top of the series); also: nearly all actives have a fitted effect of over 70% in size; also: potency is read from the fitted curve at half-maximal effect; as to activity change, negative = inhibition: % is scaled to controls: 0 for no effect and ±100 for the full control effect
# Procedure, shortened: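 Whole-parasite growth test: Giardia WB trophozoites in TYI-S-33 (pH 7.0), 100 per well, incubated 48 h at 37C with compound. ATP content was read by ATPlite luminescence.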
# [2] = target: Fructose-bisphosphate aldolase (Giardia intestinalis (strain ATCC 50803 / WB clone C6)) (UniProt A8B2U2); assay: qHTS Assay for Inhibitors of Fructose-1,6-bisphosphate Aldolase from Giardia Lamblia: Primary screen confirmation (AID 2787)
# Procedure, shortened: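 FBPA (40 nM in enzyme reagent, with 30 uM ZnCl2) was preincubated 10 min at RT with compound up to 57.5 uM final. Substrate plus coupled detection system was then added, and fluorescence (525/598 nm) was read after 20 min at RT.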
# [3] = target: Fructose-bisphosphate aldolase A (Oryctolagus cuniculus) (UniProt P00883); assay: qHTS Assay for Inhibitors of Fructose-1,6-bisphosphate Aldolase from Giardia Lamblia: Rabbit FBPA Selectivity (AID 2794)
# Procedure, shortened: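 Rabbit Class I FBPA selectivity counterscreen, 1536-well qHTS: compounds at up to 57.5 uM final preincubated 10 min RT with coupling enzyme reagent, then substrate plus coupled enzymes and AmpLite Red added; 20 min RT, fluorescence read at 525/598 nm.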
# [4] = qHTS Assay for Inhibitors of Fructose-1,6-bisphosphate Aldolase from Giardia Lamblia: Coupling assay counterscreen confirmation (AID 2795); as to activity change, negative = inhibition: % is scaled to controls: 0 for no effect and ±100 for the full control effect; nearly all actives have a fitted effect of over 55% in size
# Procedure, shortened: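 Concentration-response counterscreen (up to 57.5 uM final) of aldolase-screen hits against coupling enzymes only. Substrate, coupling system and AmpLite Red were added after a 10 min RT preincubation; fluorescence was taken 20 min later at 525/598 nm.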
# [5] = qHTS for Inhibitors of Plasmodium falciparum (7G8) proliferation (AID 504316);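 also: 0% = DMSO vehicle and -100% = 0.29 µM artemisinin full kill; nearly all actives have a fitted effect of over 65% in size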; conditions: P. falciparum 7G8 in erythrocytes, SYBR Green DNA, 72 h; activity change, negative = inhibition: at 6.7 µM (top of the series)
# Procedure, shortened: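 Parasite growth measured as SYBR Green DNA fluorescence (ex 485, em 535 nm) after overnight lysis following 72 h culture at 37 °C, 0.3% parasitemia, 2.5% hematocrit. Values normalized against DMSO and 0.29 uM artemisinin controls, with plate-stack correction.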
# [6] = AP1 Signaling Pathway (AID 357; active = well fitted curve in either direction with a large enough effect, not every such curve was filed as active; inconclusive = small, poorly fitted or top-dose-only effect, or another doubt;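 also: ME-180 reporter cells stimulated with EGF at its EC50 level; % is scaled to controls: 0 for no effect and ±100 for the full control effect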); conditions: ME-180 (cervical carcinoma) AP-1-bla reporter, EGF-induced, beta-lactamase ratio, 5 h; at 17.2 µM (top of the series) unless noted
# Procedure, shortened: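 A ratiometric CCF4 readout (405 nm excitation; 460 and 530 nm emission) quantified AP-1-driven beta-lactamase in ME-180 cells after 5 h with compound and EC50 EGF; AC50 values were derived for activators and inhibitors.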
# [7] = Confirmation and Secondary Assay for Modulators of Hemoglobin Beta Chain Splicing at IVS2 705 locus (AID 930); also: potency is read from the fitted curve at half-maximal effect
# Procedure, shortened: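 HeLa cells stably carrying EGFP interrupted by mutant beta-globin IVS2-705 intron (CMV-driven) were seeded at 500 cells/well, treated next day with compound for 2 days at 37C; corrected splicing restores EGFP, read as total peak GFP intensity per well.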
# [8] = target: Ubiquitin carboxyl-terminal hydrolase 1 (Homo sapiens) (UniProt O94782); assay: Inhibitors of USP1/UAF1: Pilot qHTS (AID 504865); also: potency is read from the fitted curve at half-maximal effect; nearly all actives have a fitted effect of over 35% in size
# Procedure, shortened: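 1nM USP1/UAF1 + cpd, 15 min RT; start w/ Ub-Rho 150nM final; kinetic FL 480/540 nm, 6 reads q60 s. Buffer 50mM HEPES pH 7.8, 0.5mM EDTA, 1mM TCEP, 0.01% Tween-20, 0.1 mg/ml BSA.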
# [9] = target: Tyrosyl-DNA phosphodiesterase 1 (Homo sapiens) (UniProt Q9NUW8); assay: Confirmation Assay for Inhibitors of Tyrosyl-DNA Phosphodiesterase (TDP1) (AID 489007); conditions: recombinant human TDP1 enzymatic activity, dose-response; also: potency is read from the fitted curve at half-maximal effect; nearly all actives have a fitted effect of over 40% in size
# Procedure, shortened: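 AlphaScreen read-out: streptavidin donor and anti-FITC acceptor beads (10 ug/ml) bind intact substrate, so Tdp1 removal of tyrosine-FITC lowers signal. Enzyme 1 nM, substrate 15 nM, 5 min reaction at room temperature after 15 min compound preincubation.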
smiles,measurement,setting,value
S=C(c1ccc(Br)cc1)N1CCN(Cc2ccccc2)CC1,Potency,[1],"inconclusive: 79.4 µM [inhibitor, single point]"
same,Potency,[2],"inconclusive: 28.2 µM [inhibitor, single point]"
same,Potency,[3],"inconclusive: 25.1 µM [inhibitor, single point]"
same,Potency,[4],"inconclusive: 20 µM [inhibitor, single point]"
O=C(N/N=C/c1ccc(O)c(O)c1O)/C(=C/c1ccc([N+](=O)[O-])cc1)NC(=O)c1ccccc1,Potency,[1],"inconclusive: 22.4 µM [inhibitor, partial curve]"
same,Potency,[2],"inconclusive: 2.24 µM [inhibitor, full curve]"
same,Potency,[3],"inconclusive: 25.1 µM [inhibitor, partial curve]"
same,Potency,[4],"inconclusive: 79.4 µM [inhibitor, partial curve]"
O=C(O)c1ccc(Cl)c(S(=O)(=O)Nc2ccc3[nH]c(=O)[nH]c3c2)c1,Potency,[1],inactive
same,Potency,[3],"inconclusive: 16.3 µM [inhibitor, partial curve]"
N#Cc1cccc(N=c2ssnc2Cl)c1,Potency,[1],"inconclusive: 28.2 µM [inhibitor, single point]"
same,Potency,[3],"inconclusive: 39.8 µM [inhibitor, partial curve]"
COc1cc(CN2CCN(Cc3ccc([N+](=O)[O-])cc3)CC2)c([N+](=O)[O-])cc1OC,Potency,[1],inactive
same,Potency,[2],"inconclusive: 15.8 µM [inhibitor, partial curve]"
same,Potency,[4],inactive
Cc1[nH]c(=S)c(C#N)c(-c2ccco2)c1C(=O)N(C)C,"activity change, negative = inhibition",[1],inconclusive: 42.4% [activator]
same,Potency,[3],inactive
Cc1nnc(N/N=C/c2cccc(OCc3ccc(Cl)c(Cl)c3)c2)n1N,Potency,[1],"inconclusive: 17.8 µM [inhibitor, partial curve, poor fit]"
same,Potency,[2],"inconclusive: 28.2 µM [inhibitor, single point]"
same,Potency,[4],"inconclusive: 100 µM [inhibitor, single point]"
O=C(NNC(=O)c1ccccc1[N+](=O)[O-])c1cnccn1,Potency,[1],"inconclusive: 70.8 µM [inhibitor, partial curve]"
same,Potency,[3],inactive
NC(=S)NNc1ccnc2cc(Cl)ccc12,Potency,[1],"inconclusive: 6.31 µM [inhibitor, single point]"
same,Potency,[3],inactive
N#Cc1c(C#N)c(O)c2ccccc2c1O,Potency,[1],"inconclusive: 79.4 µM [inhibitor, partial curve]"
same,Potency,[2],"inconclusive: 22.4 µM [inhibitor, partial curve]"
same,Potency,[3],"inconclusive: 79.4 µM [inhibitor, partial curve]"
same,Potency,[4],"inconclusive: 79.4 µM [inhibitor, partial curve]"
O=C(N/N=C/c1ccccn1)c1ccc(NC(=O)c2cccc([N+](=O)[O-])c2)cc1,Potency,[1],"inconclusive: 15.8 µM [inhibitor, partial curve, poor fit]"
same,Potency,[3],inactive
CCN(CC)S(=O)(=O)c1ccc(C(=O)Nc2nnc(CSC)o2)cc1,Potency,[1],active: 17.8 µM
same,Potency,[3],inactive
O=[N+]([O-])c1ccccc1C1Nc2cccc3cccc(c23)N1,Potency,[1],active: 10 µM
same,Potency,[2],"inconclusive: 44.7 µM [inhibitor, single point]"
same,Potency,[4],"inconclusive: 100 µM [inhibitor, partial curve, poor fit]"
Cc1cccc(Cc2cnc(N3C(=N)SC(C)C3=O)s2)c1 (stereo not given),Potency,[1],active: 12.6 µM
same,Potency,[3],inactive
O=C(Nc1nnc(C2=COCCO2)o1)c1ccc(S(=O)(=O)N2CCOCC2)cc1,Potency,[1],"inconclusive: 89.1 µM [inhibitor, single point]"
same,Potency,[3],inactive
O=C(O)c1ccc2cccc(O)c2n1,Potency,[1],"inconclusive: 50.1 µM [inhibitor, partial curve, poor fit]"
same,Potency,[2],"inconclusive: 14.1 µM [inhibitor, full curve]"
same,Potency,[4],"inconclusive: 100 µM [inhibitor, partial curve]"
CN(C)c1ccc(N/C=C/C(=O)C(C)(C)C)cc1,Potency,[1],"inconclusive: 5.62 µM [inhibitor, single point]"
same,Potency,[3],"inconclusive: 100 µM [inhibitor, partial curve]"
C=CCc1cc(OC)ccc1OCCCCn1cncn1,Potency,[1],"inconclusive: 44.7 µM [inhibitor, partial curve, poor fit]"
same,Potency,[3],inactive
O=C(NNC(=O)c1ccc(Cl)cc1Cl)c1cnccn1,Potency,[1],active: 8.91 µM
same,Potency,[3],inactive
CCS(=O)(=O)c1cc([N+](=O)[O-])c(Sc2ccccc2N)s1,Potency,[1],"inconclusive: 50.1 µM [inhibitor, single point]"
same,Potency,[3],inactive
COc1ccc(CCCC(=O)N/N=C/c2ccccc2OC)cc1,"activity change, negative = inhibition",[1],inactive: -11.5% [at 10.4 µM]
same,Potency,[2],"inconclusive: 22.4 µM [inhibitor, partial curve]"
same,Potency,[3],active: 39.8 µM
same,Potency,[4],active: 25.1 µM
O=C(CCN1CCCCC1)Nn1c(=S)[nH]c2ccccc2c1=O,Potency,[1],"inconclusive: 44.7 µM [inhibitor, partial curve, poor fit]"
same,Potency,[3],inactive
COc1ccc(NC(=S)NCCCN2CCCC2)cc1Cl,Potency,[1],"inconclusive: 50.1 µM [inhibitor, partial curve, poor fit]"
same,Potency,[2],"inconclusive: 39.8 µM [inhibitor, single point]"
same,Potency,[3],inactive
same,Potency,[4],"inconclusive: 0.126 µM [inhibitor, full curve, poor fit]"
CCOC(=O)c1c(N2CCN(c3ccccc3)CC2)cc(C)nc1C,"activity change, negative = inhibition",[1],inconclusive: 57% [activator]
same,Potency,[3],inactive
Cc1ccccc1N=Cc1cccc(O)c1O,Potency,[1],active: 20 µM
same,Potency,[3],active: 31.6 µM
COc1ccc(NN=Nc2nc3c([nH]2)c(=O)n(C)c(=O)n3C)cc1,Potency,[1],"inconclusive: 25.1 µM [inhibitor, partial curve]"
same,Potency,[2],active: 12.6 µM
same,Potency,[3],"inconclusive: 631 µM [inhibitor, partial curve]"
same,Potency,[4],"inconclusive: 63.1 µM [inhibitor, partial curve]"
NC(=O)NC(=O)CC1S/C(=N/N=C2\CSC(=O)N2)NC1=O (stereo not given),Potency,[1],inactive
same,Potency,[3],inactive
COC(=O)Cc1[nH]n(-c2nc3ccccc3s2)c(=O)c1C(C)=Nc1ccc(Cl)cc1,Potency,[1],"inconclusive: 70.8 µM [inhibitor, partial curve, poor fit]"
same,Potency,[3],inactive
COc1cc(/C=C/C(=O)c2c(O)cc(C)oc2=O)cc(OC)c1O,"activity change, negative = inhibition",[1],inactive: -3.16% [at 10.4 µM]
same,Potency,[2],"inconclusive: 15.8 µM [inhibitor, partial curve, poor fit]"
same,Potency,[3],"inconclusive: 100 µM [inhibitor, partial curve, poor fit]"
same,Potency,[4],"inconclusive: 100 µM [inhibitor, partial curve]"
CC(=O)Nc1cc(OC(C)=O)c2nonc2c1OC(C)=O,Potency,[1],"inconclusive: 31.6 µM [inhibitor, single point]"
same,Potency,[3],active: 4.47 µM
Cc1cccc(NC2=C/C(=N/S(=O)(=O)c3cccs3)c3ccccc3C2=O)c1,Potency,[1],active: 15.8 µM
same,Potency,[2],"inconclusive: 2.82 µM [inhibitor, full curve]"
same,Potency,[4],active: 2.51 µM
Cc1ccccc1C(=O)c1cccn1CC(=O)NCCCN1CCc2ccccc2C1,Potency,[1],"inconclusive: 35.5 µM [inhibitor, partial curve, poor fit]"
same,Potency,[3],inactive
OCCN1CCN(C(=S)c2ccc(-c3ccccc3)cc2)CC1,"activity change, negative = inhibition",[1],inconclusive: -31.7% [inhibitor]
same,Potency,[2],"inconclusive: 35.5 µM [inhibitor, partial curve]"
same,Potency,[3],"inconclusive: 50.1 µM [inhibitor, partial curve]"
same,Potency,[4],"inconclusive: 39.8 µM [inhibitor, single point]"
CC1CCN(c2ccc(/C=N\Nc3nncn3N)cc2[N+](=O)[O-])CC1,Potency,[1],active: 11.2 µM
same,Potency,[2],"inconclusive: 17.8 µM [inhibitor, partial curve]"
same,Potency,[4],"inconclusive: 251 µM [inhibitor, partial curve]"
O=C(CSc1cccc[n+]1[O-])c1ccc(-c2ccccc2)cc1,Potency,[1],inactive
same,Potency,[3],inactive
O=C(NC(=S)Nc1ccc2oc(=O)ccc2c1)c1cccc(Cl)c1,Potency,[1],active: 20 µM
same,Potency,[3],inactive
O=C(Nc1ccc(N2CCOCC2)c(Cl)c1)c1ccc(Cl)cc1,Potency,[1],"inconclusive: 25.1 µM [inhibitor, single point]"
same,Potency,[2],"inconclusive: 28.2 µM [inhibitor, partial curve]"
same,Potency,[3],"inconclusive: 79.4 µM [inhibitor, partial curve]"
same,Potency,[4],"inconclusive: 79.4 µM [inhibitor, partial curve]"
Cc1nc(C(F)(F)F)c(C(=O)N/N=C(\N)c2ccccn2)s1,Potency,[1],active: 31.6 µM
same,Potency,[2],"inconclusive: 35.5 µM [inhibitor, partial curve]"
same,Potency,[4],inactive
COC/C=C/C1=CC2=CC(=O)C(C)(OC(=O)c3cnc4ccccc4n3)C(=O)C2=CN1CCN1CCOCC1 (stereo not given),Potency,[1],inactive
same,Potency,[2],"inconclusive: 25.1 µM [inhibitor, partial curve]"
same,Potency,[4],"inconclusive: 100 µM [inhibitor, partial curve, poor fit]"
same,Potency,[5],inactive
CCC1(C)Cc2c(C#N)c(N)sc(=S)c2CO1 (stereo not given),"activity change, negative = inhibition",[6],inconclusive: -36.9% [inhibitor]
O=c1c(O)cccc2cc(O)c(O)c(O)c12,Potency,[7],"inconclusive: 25.1 µM [activator, single point]"
same,Potency,[8],"inconclusive: 56.2 µM [inhibitor, partial curve, poor fit]"
O=C(Nc1nc(-c2ccccn2)cs1)c1cccc(-n2cnnn2)c1,Potency,[9],"inconclusive: 112 µM [inhibitor, partial curve]"
O=C(O)CNC(=O)CC1S/C(=N/N=C2/NC(=O)CS2)NC1=O (stereo not given),Potency,[9],active: 89.1 µM

# At a glance, part of the list above:
smiles,measurement,setting,value
CCN(CC)S(=O)(=O)c1ccc(C(=O)Nc2nnc(CSC)o2)cc1,Potency,[1],active: 17.8 µM
same,Potency,[3],inactive
